The data set can be described thus: general procedure: Fmoc solid-phase peptide synthesis; 1,4-diaminobutane trityl resin. Conditions: whole synthesis, scale 0.4 mmol, side-chain lactam ring, sequence written open.

Substance “Ac-Nle-Glu-His-D-Phe(4-F)-Arg-Trp-NH(CH2)4NH2” had an isolated mass of 97.2 mg and an isolated yield of 19.8%.

These data come from patent US12692291B2 (Boehringer Ingelheim International GmbH, priority 2020, dated 2026).
